# Reference: US20160045687A1, “NASAL ADMINISTRATION” (OPTINOSE AS, priority 2013, published 2016)
# At least one structure is not confirmed: it was looked up by name or label, or the drawing left a doubt.
# Assays:
# [1] = test system: chronic rhinosinusitis (CRS) with nasal polyps; test: Example #10: 3-month placebo controlled study of fluticasone with Breath Powered liquid device; format: in vivo, human
# [2] = test system: post-surgical recalcitrant CRS without polyps; test: Example #11: placebo controlled study of fluticasone with Breath Powered liquid device; format: in vivo, human
# Experimental: Using the same drug-device combination product as Example #10, a small placebo controlled study (N=20) was performed in patients with post-surgical recalcitrant CRS without polyps, producing clinically significant improvements on both objective measures and subjective symptoms.
structure (smiles),measurement,setting,value
C[C@@H]1C[C@H]2[C@@H]3C[C@H](F)C4=CC(=O)C=C[C@]4(C)[C@@]3(F)[C@@H](O)C[C@]2(C)[C@@]1(O)C(=O)SCF [fluticasone],peak nasal inspiratory flow (PNIF),[1]; during treatment,increased progressively
same,"combined symptom score, nasal blockage, discomfort, rhinitis symptoms, and sense of smell",[1]; in vivo,all significantly improved
same,nasal RSOM-31 subscale,[2]; 4 and 8 weeks,significantly improved
same,MRI scores,[2]; after 12 weeks,improved against baseline
same,peak nasal inspiratory flow (PNIF),"[2]; as compared to placebo, 4 and 8 weeks",increased significantly
same,"sense of smell, nasal discomfort, and combined score",[2]; in vivo,all significantly improved
